The list shows a part of the results.

Amino acid sequences for entries named in this document (tags omitted). A change or cut given only in a name is not applied to a line headed by its entry.
UniProt Q9NZ32, whole entry, looked up: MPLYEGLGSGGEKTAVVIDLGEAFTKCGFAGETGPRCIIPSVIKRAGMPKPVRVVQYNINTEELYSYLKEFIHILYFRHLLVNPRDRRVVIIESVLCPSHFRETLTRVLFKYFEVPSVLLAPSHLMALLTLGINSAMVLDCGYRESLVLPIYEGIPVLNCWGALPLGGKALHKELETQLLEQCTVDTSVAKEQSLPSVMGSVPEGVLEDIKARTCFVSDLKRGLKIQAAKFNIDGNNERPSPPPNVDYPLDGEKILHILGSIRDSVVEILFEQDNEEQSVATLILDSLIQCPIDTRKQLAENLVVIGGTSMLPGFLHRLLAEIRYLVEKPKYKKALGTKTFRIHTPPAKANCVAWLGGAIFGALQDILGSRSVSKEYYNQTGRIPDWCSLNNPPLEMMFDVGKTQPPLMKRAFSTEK
UniProt P01023, whole entry, looked up: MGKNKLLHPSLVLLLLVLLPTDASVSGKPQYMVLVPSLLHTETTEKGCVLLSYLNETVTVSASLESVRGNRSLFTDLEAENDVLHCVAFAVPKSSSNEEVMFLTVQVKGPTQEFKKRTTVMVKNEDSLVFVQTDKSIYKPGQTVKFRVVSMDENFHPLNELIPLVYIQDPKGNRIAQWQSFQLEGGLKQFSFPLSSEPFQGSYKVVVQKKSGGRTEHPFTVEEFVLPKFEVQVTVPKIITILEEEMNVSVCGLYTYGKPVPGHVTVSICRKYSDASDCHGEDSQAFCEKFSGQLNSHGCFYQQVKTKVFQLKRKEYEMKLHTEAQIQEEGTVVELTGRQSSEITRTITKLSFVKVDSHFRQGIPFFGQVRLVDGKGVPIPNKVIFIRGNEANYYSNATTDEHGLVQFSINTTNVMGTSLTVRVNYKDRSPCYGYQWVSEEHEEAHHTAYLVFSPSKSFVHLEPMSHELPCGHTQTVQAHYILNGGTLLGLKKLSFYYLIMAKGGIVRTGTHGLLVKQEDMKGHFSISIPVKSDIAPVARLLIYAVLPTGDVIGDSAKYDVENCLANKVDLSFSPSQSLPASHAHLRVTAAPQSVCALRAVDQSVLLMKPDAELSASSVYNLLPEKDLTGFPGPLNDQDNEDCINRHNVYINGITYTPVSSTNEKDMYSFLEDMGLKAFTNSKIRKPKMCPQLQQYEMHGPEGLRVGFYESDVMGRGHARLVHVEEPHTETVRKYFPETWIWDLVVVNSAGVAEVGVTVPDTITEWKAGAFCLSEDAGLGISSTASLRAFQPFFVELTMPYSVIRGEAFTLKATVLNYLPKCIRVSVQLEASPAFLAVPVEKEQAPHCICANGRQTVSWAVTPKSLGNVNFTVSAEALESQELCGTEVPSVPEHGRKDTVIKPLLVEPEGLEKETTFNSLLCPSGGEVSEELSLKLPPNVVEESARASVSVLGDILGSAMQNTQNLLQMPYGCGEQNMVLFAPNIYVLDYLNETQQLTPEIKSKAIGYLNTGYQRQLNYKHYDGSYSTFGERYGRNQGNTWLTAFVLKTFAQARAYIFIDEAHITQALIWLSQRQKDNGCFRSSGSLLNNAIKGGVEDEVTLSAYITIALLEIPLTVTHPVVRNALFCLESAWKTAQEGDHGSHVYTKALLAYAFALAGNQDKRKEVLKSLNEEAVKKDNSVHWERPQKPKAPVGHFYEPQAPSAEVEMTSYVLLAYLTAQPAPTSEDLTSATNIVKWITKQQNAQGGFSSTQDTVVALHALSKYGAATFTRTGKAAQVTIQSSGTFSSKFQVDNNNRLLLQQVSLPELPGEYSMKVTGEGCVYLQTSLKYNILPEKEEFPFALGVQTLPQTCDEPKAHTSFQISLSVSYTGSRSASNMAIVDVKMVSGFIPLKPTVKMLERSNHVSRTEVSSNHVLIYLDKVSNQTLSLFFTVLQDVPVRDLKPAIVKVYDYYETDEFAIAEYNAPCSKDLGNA
UniProt P11117: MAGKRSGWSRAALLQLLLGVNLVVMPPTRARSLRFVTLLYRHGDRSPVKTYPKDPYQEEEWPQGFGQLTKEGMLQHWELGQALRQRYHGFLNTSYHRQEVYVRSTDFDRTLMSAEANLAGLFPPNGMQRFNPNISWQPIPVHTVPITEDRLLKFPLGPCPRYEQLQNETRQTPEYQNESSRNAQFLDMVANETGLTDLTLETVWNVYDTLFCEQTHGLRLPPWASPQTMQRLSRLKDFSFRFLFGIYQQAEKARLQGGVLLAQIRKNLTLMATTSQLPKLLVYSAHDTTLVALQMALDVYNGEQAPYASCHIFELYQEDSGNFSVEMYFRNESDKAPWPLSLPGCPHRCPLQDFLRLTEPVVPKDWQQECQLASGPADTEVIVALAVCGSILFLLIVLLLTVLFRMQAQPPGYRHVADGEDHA
UniProt O14672: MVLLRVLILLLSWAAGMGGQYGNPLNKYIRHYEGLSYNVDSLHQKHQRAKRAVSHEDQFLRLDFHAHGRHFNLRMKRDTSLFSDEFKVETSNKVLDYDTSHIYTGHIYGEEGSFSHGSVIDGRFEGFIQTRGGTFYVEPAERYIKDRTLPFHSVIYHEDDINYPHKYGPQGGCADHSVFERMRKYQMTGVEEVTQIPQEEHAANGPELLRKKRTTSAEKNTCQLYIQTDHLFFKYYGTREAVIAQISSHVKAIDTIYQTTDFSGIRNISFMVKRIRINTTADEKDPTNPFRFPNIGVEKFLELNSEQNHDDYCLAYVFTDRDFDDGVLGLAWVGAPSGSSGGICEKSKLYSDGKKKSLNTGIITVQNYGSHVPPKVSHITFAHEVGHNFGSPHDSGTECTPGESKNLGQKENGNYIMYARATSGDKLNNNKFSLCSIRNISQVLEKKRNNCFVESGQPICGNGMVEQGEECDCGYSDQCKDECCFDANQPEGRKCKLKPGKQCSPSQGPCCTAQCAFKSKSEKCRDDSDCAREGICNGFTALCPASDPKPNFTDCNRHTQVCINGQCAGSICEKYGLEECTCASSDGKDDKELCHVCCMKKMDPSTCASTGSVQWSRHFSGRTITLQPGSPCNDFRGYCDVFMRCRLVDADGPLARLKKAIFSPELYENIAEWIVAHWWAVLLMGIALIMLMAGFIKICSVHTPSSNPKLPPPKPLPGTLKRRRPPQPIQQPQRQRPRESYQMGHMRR
UniProt O00154: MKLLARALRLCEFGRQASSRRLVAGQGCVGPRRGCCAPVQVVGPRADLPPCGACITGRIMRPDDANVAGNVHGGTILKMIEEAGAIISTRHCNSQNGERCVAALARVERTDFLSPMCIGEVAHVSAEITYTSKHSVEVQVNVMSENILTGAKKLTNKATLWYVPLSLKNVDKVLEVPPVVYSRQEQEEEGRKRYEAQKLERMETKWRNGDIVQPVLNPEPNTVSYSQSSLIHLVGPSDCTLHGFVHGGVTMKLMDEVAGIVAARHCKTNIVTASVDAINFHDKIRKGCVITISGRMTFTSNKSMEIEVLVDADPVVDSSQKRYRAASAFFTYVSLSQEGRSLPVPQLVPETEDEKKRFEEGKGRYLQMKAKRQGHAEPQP
UniProt Q13443: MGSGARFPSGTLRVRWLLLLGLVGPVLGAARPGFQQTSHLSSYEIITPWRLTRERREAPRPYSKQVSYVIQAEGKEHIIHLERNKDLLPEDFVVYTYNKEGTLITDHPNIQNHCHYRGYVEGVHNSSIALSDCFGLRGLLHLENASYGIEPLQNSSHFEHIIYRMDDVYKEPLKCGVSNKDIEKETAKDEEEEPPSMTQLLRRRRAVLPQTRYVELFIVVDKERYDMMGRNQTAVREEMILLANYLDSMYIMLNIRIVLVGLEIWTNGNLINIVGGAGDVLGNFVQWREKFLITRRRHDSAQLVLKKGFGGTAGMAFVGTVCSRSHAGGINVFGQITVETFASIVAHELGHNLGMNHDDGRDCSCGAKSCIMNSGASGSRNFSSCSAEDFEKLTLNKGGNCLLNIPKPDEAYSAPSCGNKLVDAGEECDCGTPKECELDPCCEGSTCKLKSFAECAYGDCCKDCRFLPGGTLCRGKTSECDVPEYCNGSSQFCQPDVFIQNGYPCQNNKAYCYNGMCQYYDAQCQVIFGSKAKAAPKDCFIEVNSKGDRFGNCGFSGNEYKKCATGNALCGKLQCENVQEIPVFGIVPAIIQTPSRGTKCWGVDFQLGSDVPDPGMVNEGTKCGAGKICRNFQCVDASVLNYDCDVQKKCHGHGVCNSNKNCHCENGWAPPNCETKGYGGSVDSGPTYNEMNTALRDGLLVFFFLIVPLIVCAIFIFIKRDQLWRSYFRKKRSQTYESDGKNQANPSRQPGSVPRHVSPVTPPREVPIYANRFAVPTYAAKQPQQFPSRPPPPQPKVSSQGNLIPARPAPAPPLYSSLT
UniProt O43707, whole entry, looked up: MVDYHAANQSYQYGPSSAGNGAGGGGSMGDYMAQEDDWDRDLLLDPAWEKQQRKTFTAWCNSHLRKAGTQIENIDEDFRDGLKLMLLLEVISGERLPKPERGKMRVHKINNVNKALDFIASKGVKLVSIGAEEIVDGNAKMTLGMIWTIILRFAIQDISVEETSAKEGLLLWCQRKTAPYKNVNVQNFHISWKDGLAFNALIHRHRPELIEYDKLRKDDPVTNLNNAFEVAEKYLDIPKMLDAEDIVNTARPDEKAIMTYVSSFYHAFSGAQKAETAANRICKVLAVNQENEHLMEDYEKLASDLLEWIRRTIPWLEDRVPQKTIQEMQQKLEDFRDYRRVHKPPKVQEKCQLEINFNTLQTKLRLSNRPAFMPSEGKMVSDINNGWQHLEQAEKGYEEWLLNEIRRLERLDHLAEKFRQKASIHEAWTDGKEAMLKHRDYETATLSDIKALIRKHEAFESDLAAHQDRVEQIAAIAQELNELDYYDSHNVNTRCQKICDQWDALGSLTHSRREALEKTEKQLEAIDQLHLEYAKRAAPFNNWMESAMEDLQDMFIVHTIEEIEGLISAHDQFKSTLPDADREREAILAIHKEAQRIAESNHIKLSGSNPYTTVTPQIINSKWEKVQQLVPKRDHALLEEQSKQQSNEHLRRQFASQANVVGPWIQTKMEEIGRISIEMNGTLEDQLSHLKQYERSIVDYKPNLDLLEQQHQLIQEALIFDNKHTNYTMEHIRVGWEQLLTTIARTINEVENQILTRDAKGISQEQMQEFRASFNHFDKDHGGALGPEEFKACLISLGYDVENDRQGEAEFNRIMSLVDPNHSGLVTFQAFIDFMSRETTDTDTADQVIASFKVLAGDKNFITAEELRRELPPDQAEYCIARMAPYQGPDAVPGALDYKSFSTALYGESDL
UniProt Q96GS6: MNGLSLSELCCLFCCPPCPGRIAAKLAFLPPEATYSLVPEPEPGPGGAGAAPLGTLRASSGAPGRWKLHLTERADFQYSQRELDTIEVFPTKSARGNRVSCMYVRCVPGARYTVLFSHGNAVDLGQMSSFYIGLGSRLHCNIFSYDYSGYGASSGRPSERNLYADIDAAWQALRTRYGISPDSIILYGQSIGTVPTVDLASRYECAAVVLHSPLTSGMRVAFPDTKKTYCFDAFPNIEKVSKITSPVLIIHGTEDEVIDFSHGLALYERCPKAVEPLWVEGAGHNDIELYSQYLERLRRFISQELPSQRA
UniProt P53396: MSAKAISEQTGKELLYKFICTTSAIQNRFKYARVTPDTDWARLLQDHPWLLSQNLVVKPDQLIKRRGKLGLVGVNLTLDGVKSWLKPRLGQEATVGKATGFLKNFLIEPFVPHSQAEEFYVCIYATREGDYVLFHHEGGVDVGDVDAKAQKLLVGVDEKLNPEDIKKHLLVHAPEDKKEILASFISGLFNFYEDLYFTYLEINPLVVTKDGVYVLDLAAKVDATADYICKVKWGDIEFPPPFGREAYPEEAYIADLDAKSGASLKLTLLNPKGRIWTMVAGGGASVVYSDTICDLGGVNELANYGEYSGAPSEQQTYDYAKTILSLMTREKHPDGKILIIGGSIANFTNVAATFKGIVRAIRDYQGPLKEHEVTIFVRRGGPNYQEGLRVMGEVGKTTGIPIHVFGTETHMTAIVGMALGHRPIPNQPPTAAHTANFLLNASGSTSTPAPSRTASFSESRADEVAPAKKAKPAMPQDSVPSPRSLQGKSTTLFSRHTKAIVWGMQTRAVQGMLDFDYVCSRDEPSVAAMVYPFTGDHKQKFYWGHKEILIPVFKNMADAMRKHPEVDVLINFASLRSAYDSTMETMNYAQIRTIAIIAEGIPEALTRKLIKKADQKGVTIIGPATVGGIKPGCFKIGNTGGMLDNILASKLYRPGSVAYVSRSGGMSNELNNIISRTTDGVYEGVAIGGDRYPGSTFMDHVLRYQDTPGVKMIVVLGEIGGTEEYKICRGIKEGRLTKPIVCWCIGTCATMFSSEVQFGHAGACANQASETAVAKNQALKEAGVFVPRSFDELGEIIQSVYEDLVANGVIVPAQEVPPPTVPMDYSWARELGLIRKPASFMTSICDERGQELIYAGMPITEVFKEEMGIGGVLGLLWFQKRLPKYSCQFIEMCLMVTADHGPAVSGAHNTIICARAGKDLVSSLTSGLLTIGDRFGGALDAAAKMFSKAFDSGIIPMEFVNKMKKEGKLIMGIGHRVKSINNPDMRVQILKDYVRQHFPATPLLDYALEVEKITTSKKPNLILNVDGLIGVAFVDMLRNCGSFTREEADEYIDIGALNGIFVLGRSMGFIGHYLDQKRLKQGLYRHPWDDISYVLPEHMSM

Our source for the log2 fold change values is the supplement of paper PMC10849652.

Compound in the first test: Cc1ccc(NC(=O)c2ccc(CN3CC[C@H](N(C)C)C3)c(C(F)(F)F)c2)cc1Nc1nccc(-c2cncnc2)n1 [bafetinib]
Kind of test: log2 fold change, soluble protein after heating vs DMSO (PISA); higher = thermal stabilisation; K562 cells, 10 uM, 30 min; active = over 0.2 and 3.5 SD of the protein, either way, in both replicates (recomputed). A digest of the protocol: (§1)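 For each measurement, 10 μM compound was applied for 30 min to K562 cells at 2×10^6 cells/mL. Aliquots were heated for 3 min across 48°C-58°C, pooled, and extracted in PBS with 0.5% NP-40 at 4°C; the supernatant after 21,000xg for 90 min was soluble protein. This was quantified by TMTpro 16plex LC-MS/MS with channel sums equalised, and thermal stability was reported relative to control samples from duplicates, on a log2 fold-change scale.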
Regarding ACTR2 (UniProt P61160), the log2 fold change was inactive: -0.003.
Consider ACBD6 (UniProt Q9BR61), for which the log2 fold change is inactive: -0.058.
On the same count and under the same terms, the value for ACTR10 (UniProt Q9NZ32) was inactive: -0.033.
In the case of ACSS1 (UniProt Q9NUB1), the log2 fold change was inactive: 0.025.
The same measure, in the same setting: the value for A2M (UniProt P01023) was inactive: -0.095; that for ACAD8 (UniProt Q9UKU7) was inactive: 0.092; that for ACTR6 (UniProt Q9GZN1) was inactive: -0.075.
As to ABLIM1 (UniProt O14639), the log2 fold change was inactive: 0.386.
As to ACP2 (UniProt P11117), the log2 fold change was inactive: -0.107.
On the same count and under the same terms, the result for ABCB10 (UniProt Q9NRK6) reads inactive: -0.066; that for ABCB8 (UniProt Q9NUT2), inactive: 0.037; that for ADAM10 (UniProt O14672), inactive: -0.019.
Still for that read-out and setting: the result for ADAT2 (UniProt Q7Z6V5) reads inactive: -0.019; that for ACOT7 isoform 7 (UniProt O00154), inactive: 0.013.
With ACADSB (UniProt P45954), the log2 fold change was inactive: 0.029.
As for ADAM9 (UniProt Q13443), the log2 fold change is inactive: -0.086.
Turning to ABCE1 (UniProt P61221), the log2 fold change is inactive: -0.005.
On to ACAT2 (UniProt Q9BWD1), for which the log2 fold change is inactive: -0.019.
Consider ACOT8 (UniProt O14734), for which the log2 fold change is inactive: -0.039.
Take ACIN1 (UniProt Q9UKV3): the log2 fold change is inactive: 0.022.
Turning to ADAR isoform 4 (UniProt P55265), the log2 fold change was inactive: 0.368.
For AARS (UniProt P49588), the log2 fold change was inactive: -0.035.
In the case of ACTN4 (UniProt O43707), the log2 fold change was inactive: -0.027.
For the target ACBD3 (UniProt Q9H3P7), the log2 fold change was inactive: 0.05.
With ACTR3 (UniProt P61158), the log2 fold change is inactive: -0.026.
In the case of ACSL1 (UniProt P33121), the log2 fold change is inactive: -0.178.
Consider ABHD17A isoform 2 (UniProt Q96GS6), for which the log2 fold change was inactive: -0.051.
Turning to AAMP (UniProt Q13685), the log2 fold change was inactive: 0.011.
As to ACLY (UniProt P53396), the log2 fold change was inactive: -0.052.
As to AAMDC (UniProt Q9H7C9), the log2 fold change is inactive: -0.008.
On to ACTR1A (UniProt P61163), for which the log2 fold change was inactive: -0.029.
For the target ACAD9 (UniProt Q9H845), the log2 fold change was inactive: -0.061.
Turning to ABHD14B (UniProt Q96IU4), the log2 fold change was inactive: -0.029.
On the same count and under the same terms, the result for ACAA2 (UniProt P42765) reads inactive: -0.037.
Same read-out and setting: the value for ABCC1 (UniProt P33527) was inactive: 0.028; that for ACSL5 isoform 3 (UniProt Q9ULC5) was active: -0.271; that for ACADM isoform 2 (UniProt P11310) was inactive: -0.073.

Compound in a further test: Cc1cccc(CC(=O)N2CCc3c2ccc(-c2cn(C)c4ncnc(N)c24)c3F)n1
The test is described as above. A digest of the protocol: as §1
For ACTR2 (UniProt P61160), the log2 fold change was inactive: -0.042.
The same measure, in the same setting: the value for ACBD6 (UniProt Q9BR61) was inactive: 0.063; that for ACTR10 (UniProt Q9NZ32) was inactive: -0.108.
As to ACSS1 (UniProt Q9NUB1), the log2 fold change is inactive: -0.006.
On to A2M (UniProt P01023), for which the log2 fold change is inactive: -0.012.
In the case of ACAD8 (UniProt Q9UKU7), the log2 fold change is inactive: -0.031.
With ACTR6 (UniProt Q9GZN1), the log2 fold change is inactive: -0.065.
ABLIM1 (UniProt O14639): the log2 fold change is inactive: 0.763.
Consider ACP2 (UniProt P11117), for which the log2 fold change is inactive: -0.06.
In the case of ABCB10 (UniProt Q9NRK6), the log2 fold change is inactive: 0.008.
As for ABCB8 (UniProt Q9NUT2), the log2 fold change is inactive: 0.
As to ADAM10 (UniProt O14672), the log2 fold change is inactive: -0.021.
In the case of ADAT2 (UniProt Q7Z6V5), the log2 fold change is inactive: -0.023.
As for ACOT7 isoform 7 (UniProt O00154), the log2 fold change was inactive: 0.014.
As to ACADSB (UniProt P45954), the log2 fold change was inactive: 0.013.
As to ADAM9 (UniProt Q13443), the log2 fold change is inactive: -0.127.
In the case of ABCE1 (UniProt P61221), the log2 fold change is inactive: -0.021.
Consider ACAT2 (UniProt Q9BWD1), for which the log2 fold change was inactive: -0.037.
Consider ACOT8 (UniProt O14734), for which the log2 fold change is inactive: -0.013.
The same measure, in the same setting: the result for ACIN1 (UniProt Q9UKV3) reads inactive: -0.037; that for ADAR isoform 4 (UniProt P55265), inactive: -0.059; that for AARS (UniProt P49588), inactive: 0.065.
As to ACTN4 (UniProt O43707), the log2 fold change was inactive: -0.038.
On the same count and under the same terms, the result for ACBD3 (UniProt Q9H3P7) reads inactive: -0.046.
With ACTR3 (UniProt P61158), the log2 fold change is inactive: 0.046.
For the target ACSL1 (UniProt P33121), the log2 fold change was inactive: -0.004.
Consider ABHD17A isoform 2 (UniProt Q96GS6), for which the log2 fold change was inactive: 0.044.
Turning to AAMP (UniProt Q13685), the log2 fold change was inactive: 0.014.
For the target ACLY (UniProt P53396), the log2 fold change is inactive: -0.038.
In the case of AAMDC (UniProt Q9H7C9), the log2 fold change is inactive: -0.003.
On to ACTR1A (UniProt P61163), for which the log2 fold change is inactive: -0.05.
In the case of ACAD9 (UniProt Q9H845), the log2 fold change was inactive: -0.022.
On to ABHD14B (UniProt Q96IU4), for which the log2 fold change was inactive: 0.039.
On the same count and under the same terms, the result for ACAA2 (UniProt P42765) reads inactive: -0.063.
Consider ABCC1 (UniProt P33527), for which the log2 fold change is inactive: 0.049.
In the case of ACSL5 isoform 3 (UniProt Q9ULC5), the log2 fold change is inactive: -0.01.
ACADM isoform 2 (UniProt P11310): the log2 fold change was inactive: 0.002.
